Data source: PubChem BioAssay AID720505 (Drosophila RNAi Screening Center, 2013)
The screen tested about 20,000 reagents; this is a random part of those with a known target gene and a result. Over the whole deposit, about 2,100 (10%) got an active call. 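Raw plate signals without normalisation; calls rest on control-based scores that were not deposited; replicate 2 separates called from uncalled poorly.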 Not given: the amount of reagent, the time to read-out.

Aim: 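Fly regulators or components of the CRAC channel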 (primary screen)
Cell system: Drosophila S2R+ cells
Knock-down reagent: long dsRNA against Drosophila genes
Treatment: thapsigargin (2 µM) in calcium-free buffer to empty internal stores, then 2 mM calcium added back
Measurement: 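Stores emptied by 2 µM thapsigargin without calcium, then 2 mM calcium re-added; fluo-4 fluorescence followed by FLIPR in 384-well plates, per-well averaged endpoint, raw; two screen passes, some wells retested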
Reading the numbers: calcium signal and retest calcium signal: higher = more calcium entry after store depletion
Active means: 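Knock-downs counted as hits when calcium entry dropped relative to STIM1 positive and Rho1 negative controls present on each plate; roughly 1500 genes called, with reductions of differing size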
Calls: active = called as lowering calcium entry; inactive = not called

Against CG2955 [SID104180344] the deposit lists calcium signal, replicate 1 = 117; calcium signal, replicate 2 = 219; inactive.
For Neurl4 (Neuralized E3 ubiquitin protein ligase 4) [SID104190430], the values are calcium signal, replicate 1 = 107; calcium signal, replicate 2 = 126; inactive.
Depletion of CG6403 [SID104195825] gave: calcium signal, replicate 1 = 152; calcium signal, replicate 2 = 171; inactive.
CG10984 [SID104189609] scored calcium signal, replicate 1 = 90.2; calcium signal, replicate 2 = 143; inactive.
Sos (Son of sevenless) [SID104183231] gave calcium signal, replicate 1 = 132; calcium signal, replicate 2 = 148; inactive.
Silencing of CG8993 [SID104188408] came out at: calcium signal, replicate 1 = 110; calcium signal, replicate 2 = 84.6; inactive.
With knock-down of Act57B (Actin 57B) [SID104183834], the screen gave calcium signal, replicate 1 = 157; calcium signal, replicate 2 = 76.5; inactive.
Depletion of axed (axundead) [SID104190774] came out at: calcium signal, replicate 1 = 86; calcium signal, replicate 2 = 67.7; inactive.
FMRFaR (FMRFamide Receptor) [SID104188347] showed calcium signal, replicate 1 = 103; calcium signal, replicate 2 = 97; inactive.
CG15185 [SID104192357] showed calcium signal, replicate 1 = 137; calcium signal, replicate 2 = 159; inactive.
CG13326 [SID104186155] gave calcium signal, replicate 1 = 134; calcium signal, replicate 2 = 195; inactive.
For CG13097 [SID104181991] the deposit lists calcium signal, replicate 1 = 93; calcium signal, replicate 2 = 94.4; inactive.
Depletion of CG15152 [SID104182245] resulted in: calcium signal, replicate 1 = 103; calcium signal, replicate 2 = 95; inactive.
After knock-down of Obp99b (Odorant-binding protein 99b) [SID104196056] the results were calcium signal, replicate 1 = 154; calcium signal, replicate 2 = 147; inactive.
Jhbp14 (Juvenile hormone binding protein 14) [SID104181780] gave calcium signal, replicate 1 = 66.6; calcium signal, replicate 2 = 115; active.
For CG14965 [SID104188216] the deposit lists calcium signal, replicate 1 = 129; calcium signal, replicate 2 = 131; inactive.
Osi3 (Osiris 3) [SID104191967] showed calcium signal, replicate 1 = 114; calcium signal, replicate 2 = 130; inactive.
Nepl4 (Neprilysin-like 4) [SID104183031] scored calcium signal, replicate 1 = 121; calcium signal, replicate 2 = 201; inactive.
Ggamma1 (G protein gamma subunit 1) [SID104187227] scored calcium signal, replicate 1 = 190; calcium signal, replicate 2 = 114; inactive.
After knock-down of Adss (Adenylosuccinate synthetase) [SID104193954], the record shows calcium signal, replicate 1 = 201; calcium signal, replicate 2 = 340; inactive.
With knock-down of Pis (Phosphatidylinositol synthase) [SID104199970] the results were calcium signal, replicate 1 = 108; calcium signal, replicate 2 = 110; inactive.
Ir75a (Ionotropic receptor 75a) [SID104189980] gave calcium signal, replicate 1 = 126; calcium signal, replicate 2 = 195; inactive.
Against nur (nemuri) [SID104181134], the values are calcium signal, replicate 1 = 171; calcium signal, replicate 2 = 77.4; inactive.
Prosbeta1 (Proteasome beta1 subunit) [SID104186951] showed calcium signal, replicate 1 = 90.3; calcium signal, replicate 2 = 121; inactive.
After knock-down of CR10032 (pseudo) [SID104192291], the record shows calcium signal, replicate 1 = 114; calcium signal, replicate 2 = 156; inactive.
With knock-down of Pex5 (Peroxin 5) [SID104198344], the screen gave calcium signal, replicate 1 = 132; calcium signal, replicate 2 = 177; inactive.
With knock-down of CG32053 [SID104190475], the record shows calcium signal, replicate 1 = 90.3; calcium signal, replicate 2 = 105; inactive.
Depletion of Crg-1 (Circadianly Regulated Gene) [SID104202241] gave: calcium signal, replicate 1 = 156; calcium signal, replicate 2 = 166; inactive.
Depletion of Muc12Ea (Mucin 12Ea) [SID104199729] resulted in: calcium signal, replicate 1 = 117; calcium signal, replicate 2 = 161; retest calcium signal, replicate 1 = 5551; retest calcium signal, replicate 2 = 77.8; inactive.
Against DptB (Diptericin B) [SID104185793], the entry reads calcium signal, replicate 1 = 128; calcium signal, replicate 2 = 137; inactive.
Against CG14013 [SID104182136], the values are calcium signal, replicate 1 = 90.6; calcium signal, replicate 2 = 88.4; inactive.
With knock-down of CG7702 [SID104196085], the record shows calcium signal, replicate 1 = 96.2; calcium signal, replicate 2 = 160; inactive.
For Cpr49Aa (Cuticular protein 49Aa) [SID104186989] the deposit lists calcium signal, replicate 1 = 107; calcium signal, replicate 2 = 187; inactive.
For CG14323 [SID104194594] the deposit lists calcium signal, replicate 1 = 127; calcium signal, replicate 2 = 160; inactive.
Knock-down of Afti (Aftiphilin) [SID104196232] resulted in: calcium signal, replicate 1 = 138; calcium signal, replicate 2 = 121; inactive.

Just “calcium signal, replicate 1” (4 entries from above):
Jhbp14 (Juvenile hormone binding protein 14) [SID104181780] = 66.6
CG14965 [SID104188216] = 129
Osi3 (Osiris 3) [SID104191967] = 114
Nepl4 (Neprilysin-like 4) [SID104183031] = 121
